Measured values: patent US20230082989A1, “DEVICES AND METHODS FOR TREATING CANCER AND CARDIAC WASTING” (Nazzano Devices Limited, priority 2020, published 2023)
Some of these results come from one statement about several compounds together.

System: advanced cancer patients
Assay: Survival follow-up of advanced cancer patients receiving heart failure drugs, case series
Assay type: in vivo, human

CC(=O)S[C@@H]1CC2=CC(=O)CC[C@]2(C)[C@H]2CC[C@@]3(C)[C@@H](CC[C@@]34CCC(=O)O4)[C@H]12 [Spironolactone]
Survival (still alive after) (Case 12: Multiple Myeloma stage 3, Spironolactone 25 mg, Candesartan 32 mg and Candesartan 8 mg listed, with co-medication): > 237 days | Survival (still alive after) (Case 13: Lung cancer UICC stage 4B, Spironolactone 25 mg and Candesartan 32 mg with co-medication): > 112 days
